Results are given in words; binding and its absence hold for the method and conditions named. Binding seen in cells or lysates may run through a third protein. Here binding means that the protein was enriched with, or labelled near, the bait; the list need not be complete. Sequences can lack the tags named with a protein.
Target: T1, GST-PE_PGRS30 fusion protein (Mycobacterium tuberculosis) (UniProt Q79FL8)
T1 sequence: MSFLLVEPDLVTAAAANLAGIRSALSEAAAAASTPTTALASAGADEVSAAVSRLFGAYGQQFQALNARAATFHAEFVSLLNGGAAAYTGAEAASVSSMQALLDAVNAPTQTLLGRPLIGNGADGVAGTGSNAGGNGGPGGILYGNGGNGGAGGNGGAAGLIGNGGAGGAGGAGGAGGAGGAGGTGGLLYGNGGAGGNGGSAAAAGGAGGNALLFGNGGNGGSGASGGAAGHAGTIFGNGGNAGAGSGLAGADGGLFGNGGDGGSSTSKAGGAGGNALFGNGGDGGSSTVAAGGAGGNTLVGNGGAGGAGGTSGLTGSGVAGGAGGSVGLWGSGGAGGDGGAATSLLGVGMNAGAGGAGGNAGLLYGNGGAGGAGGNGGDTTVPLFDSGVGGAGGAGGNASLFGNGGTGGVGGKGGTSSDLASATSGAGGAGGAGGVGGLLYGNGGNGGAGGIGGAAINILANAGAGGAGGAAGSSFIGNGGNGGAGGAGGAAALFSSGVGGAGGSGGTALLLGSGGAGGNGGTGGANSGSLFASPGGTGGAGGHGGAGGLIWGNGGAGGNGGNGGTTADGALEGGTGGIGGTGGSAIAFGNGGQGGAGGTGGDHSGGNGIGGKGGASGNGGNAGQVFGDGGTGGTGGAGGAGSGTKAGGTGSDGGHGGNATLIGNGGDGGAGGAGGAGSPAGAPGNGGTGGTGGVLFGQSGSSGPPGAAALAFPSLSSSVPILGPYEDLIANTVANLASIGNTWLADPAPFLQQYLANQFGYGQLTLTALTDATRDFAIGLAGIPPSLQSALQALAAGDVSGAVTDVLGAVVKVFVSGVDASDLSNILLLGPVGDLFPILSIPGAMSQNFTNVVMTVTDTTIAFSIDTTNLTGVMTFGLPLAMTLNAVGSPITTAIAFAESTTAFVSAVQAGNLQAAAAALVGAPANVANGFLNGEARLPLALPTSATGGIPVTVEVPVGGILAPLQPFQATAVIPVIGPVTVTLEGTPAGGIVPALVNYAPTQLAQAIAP
Test: affinity purification with mass spectrometry; […] (50 mM Hepes pH 7.5, 150 mM NaCl, 0.1% Triton X-100, 10% glycerol) […]; only the target purified

The chains behind the UniProt entries cited, without tags or fusion partners.
UniProt O35129: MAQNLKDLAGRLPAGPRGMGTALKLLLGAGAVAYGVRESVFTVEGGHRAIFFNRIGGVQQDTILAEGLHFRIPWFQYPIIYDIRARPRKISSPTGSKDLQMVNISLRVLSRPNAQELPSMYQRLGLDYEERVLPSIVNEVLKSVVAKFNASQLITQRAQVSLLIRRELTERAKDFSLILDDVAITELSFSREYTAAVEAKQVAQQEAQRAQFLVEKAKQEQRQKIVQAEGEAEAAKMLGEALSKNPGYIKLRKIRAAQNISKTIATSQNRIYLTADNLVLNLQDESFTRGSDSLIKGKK

prohibitin 2 (PHB2), endogenous in RAW264.7 cells (from UniProt O35129 1-299)
binding: binds

— article PMC9911437
